Results are given in words; binding and its absence hold for the method and conditions named. Binding seen in cells or lysates may run through a third protein. Some entries that bind do so weakly or less than the wild type. For some of these results: Sequences can lack the tags named with a protein.

Sequences of proteins named here, by UniProt entry; tags and fusion partners are left off.
UniProt O60488: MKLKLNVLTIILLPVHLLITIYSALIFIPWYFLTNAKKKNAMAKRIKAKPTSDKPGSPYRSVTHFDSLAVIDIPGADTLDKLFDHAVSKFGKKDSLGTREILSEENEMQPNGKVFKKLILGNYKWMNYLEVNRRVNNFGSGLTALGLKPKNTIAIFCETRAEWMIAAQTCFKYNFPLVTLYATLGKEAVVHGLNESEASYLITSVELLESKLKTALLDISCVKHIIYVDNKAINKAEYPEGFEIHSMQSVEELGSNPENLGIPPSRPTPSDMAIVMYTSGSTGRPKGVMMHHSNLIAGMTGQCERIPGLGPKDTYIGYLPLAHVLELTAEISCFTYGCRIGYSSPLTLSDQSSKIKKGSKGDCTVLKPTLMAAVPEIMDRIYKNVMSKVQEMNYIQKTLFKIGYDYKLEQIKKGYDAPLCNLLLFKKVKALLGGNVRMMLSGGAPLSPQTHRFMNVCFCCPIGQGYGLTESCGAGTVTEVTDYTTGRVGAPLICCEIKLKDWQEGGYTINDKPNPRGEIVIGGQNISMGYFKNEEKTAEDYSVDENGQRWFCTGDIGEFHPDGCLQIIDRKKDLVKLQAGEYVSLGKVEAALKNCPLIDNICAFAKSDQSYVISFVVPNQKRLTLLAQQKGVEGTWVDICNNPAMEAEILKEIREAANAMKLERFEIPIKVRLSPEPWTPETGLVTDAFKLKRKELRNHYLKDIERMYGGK
UniProt Q9UIJ5: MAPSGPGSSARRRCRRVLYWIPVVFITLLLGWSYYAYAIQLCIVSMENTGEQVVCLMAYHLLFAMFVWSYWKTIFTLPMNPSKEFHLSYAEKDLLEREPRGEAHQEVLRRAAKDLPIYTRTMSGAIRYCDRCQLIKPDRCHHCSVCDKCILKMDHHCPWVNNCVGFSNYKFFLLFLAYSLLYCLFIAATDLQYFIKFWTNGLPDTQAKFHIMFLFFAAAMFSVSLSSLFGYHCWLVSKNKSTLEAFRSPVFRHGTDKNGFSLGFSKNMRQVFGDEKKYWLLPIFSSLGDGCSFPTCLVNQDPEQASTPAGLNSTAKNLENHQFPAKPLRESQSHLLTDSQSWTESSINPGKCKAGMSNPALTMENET

The values that follow come from PMC12767118.

Assay [1] deals with ACSL4, endogenous (human (endogenous in C4‐2, 22Rv1 and LNCaP)) (UniProt O60488). Kind of assay: proximity ligation; Duolink in situ PLA in fixed and permeabilised 22Rv1 cells with the indicated antibodies; for USP19-ACSL4 also after ZDHHC2 knockdown.
The target in assay [2] is palmitoyltransferase ZDHHC2, endogenous (human (endogenous in C4‐2, 22Rv1 and LNCaP)) (UniProt Q9UIJ5). The description is as above.
For assay [3], the target named is ACSL4, endogenous (human (endogenous in C4‐2, 22Rv1 and LNCaP)) (UniProt O60488). Briefly: co-IP; endogenous proteins; C4‐2, 22Rv1 and LNCaP lysates in RIPA buffer, specific antibodies and magnetic beads overnight at 4 °C, six washes, Western blot; for USP19-ACSL4 also in ZDHHC2-KO cells transfected with ZDHHC2 plasmids, with TTZ1 and MG132, and in enzalutamide-resistant versus -sensitive lines.

The target of assay [4] is palmitoyltransferase ZDHHC2, endogenous (human (endogenous in C4‐2, 22Rv1 and LNCaP)) (UniProt Q9UIJ5). The description is as above.
Assay [5] deals with recombinant ACSL4 (GST pull‐down assay) (UniProt O60488). Briefly: pull-down; GST fusion protein (E. coli BL21, pET‐GST) captured overnight at 4 °C on glutathione–agarose beads, then mixed with cell lysate of the target protein overnight at 4 °C; SDS-PAGE; only the target purified.
Assay [6] deals with recombinant full‐length ZDHHC2 (GST pull‐down assays) (UniProt Q9UIJ5). The description is as above.
The target in assay [7] is ACSL4, endogenous (human (endogenous in C4‐2, 22Rv1 and LNCaP)) (UniProt O60488). Briefly: co-IP; C4‐2, 22Rv1 and LNCaP cells transfected with the indicated plasmids (USP19 C152S, ZDHHC2) for 24 h, treated with MG132; co-IP and Western blot. For orientation: A western blot detects proteins with antibodies after separation by electrophoresis.

B1: ubiquitin carboxyl‐terminal hydrolase 19 (USP19), endogenous (enzyme, UniProt O94966 1-1318)
chain: MSGGASATGPRRGPPGLEDTTSKKKQKDRANQESKDGDPRKETGSRYVAQAGLEPLASGDPSASASHAAGITGSRHRTRLFFPSSSGSASTPQEEQTKEGACEDPHDLLATPTPELLLDWRQSAEEVIVKLRVGVGPLQLEDVDAAFTDTDCVVRFAGGQQWGGVFYAEIKSSCAKVQTRKGSLLHLTLPKKVPMLTWPSLLVEADEQLCIPPLNSQTCLLGSEENLAPLAGEKAVPPGNDPVSPAMVRSRNPGKDDCAKEEMAVAADAATLVDEPESMVNLAFVKNDSYEKGPDSVVVHVYVKEICRDTSRVLFREQDFTLIFQTRDGNFLRLHPGCGPHTTFRWQVKLRNLIEPEQCTFCFTASRIDICLRKRQSQRWGGLEAPAARVGGAKVAVPTGPTPLDSTPPGGAPHPLTGQEEARAVEKDKSKARSEDTGLDSVATRTPMEHVTPKPETHLASPKPTCMVPPMPHSPVSGDSVEEEEEEEKKVCLPGFTGLVNLGNTCFMNSVIQSLSNTRELRDFFHDRSFEAEINYNNPLGTGGRLAIGFAVLLRALWKGTHHAFQPSKLKAIVASKASQFTGYAQHDAQEFMAFLLDGLHEDLNRIQNKPYTETVDSDGRPDEVVAEEAWQRHKMRNDSFIVDLFQGQYKSKLVCPVCAKVSITFDPFLYLPVPLPQKQKVLPVFYFAREPHSKPIKFLVSVSKENSTASEVLDSLSQSVHVKPENLRLAEVIKNRFHRVFLPSHSLDTVSPSDTLLCFELLSSELAKERVVVLEVQQRPQVPSVPISKCAACQRKQQSEDEKLKRCTRCYRVGYCNQLCQKTHWPDHKGLCRPENIGYPFLVSVPASRLTYARLAQLLEGYARYSVSVFQPPFQPGRMALESQSPGCTTLLSTGSLEAGDSERDPIQPPELQLVTPMAEGDTGLPRVWAAPDRGPVPSTSGISSEMLASGPIEVGSLPAGERVSRPEAAVPGYQHPSEAMNAHTPQFFIYKIDSSNREQRLEDKGDTPLELGDDCSLALVWRNNERLQEFVLVASKELECAEDPGSAGEAARAGHFTLDQCLNLFTRPEVLAPEEAWYCPQCKQHREASKQLLLWRLPNVLIVQLKRFSFRSFIWRDKINDLVEFPVRNLDLSKFCIGQKEEQLPSYDLYAVINHYGGMIGGHYTACARLPNDRSSQRSDVGWRLFDDSTVTTVDESQVVTRYAYVLFYRRRNSPVERPPRAGHSEHHPDLGPAAEAAASQASRIWQELEAEEEPVPEGSGPLGPWGPQDWVGPLPRGPTTPDEGCLRYFVLGTVAALVALVLNVFYPLVSQSRWR
With B1, the binding entry in assay [1], in assay [2], in assay [3] and in assay [4] was “binds” each time.

B2: recombinant USP19 (GST pull‐down assays) (enzyme, UniProt O94966 1-1318)
chain: MSGGASATGPRRGPPGLEDTTSKKKQKDRANQESKDGDPRKETGSRYVAQAGLEPLASGDPSASASHAAGITGSRHRTRLFFPSSSGSASTPQEEQTKEGACEDPHDLLATPTPELLLDWRQSAEEVIVKLRVGVGPLQLEDVDAAFTDTDCVVRFAGGQQWGGVFYAEIKSSCAKVQTRKGSLLHLTLPKKVPMLTWPSLLVEADEQLCIPPLNSQTCLLGSEENLAPLAGEKAVPPGNDPVSPAMVRSRNPGKDDCAKEEMAVAADAATLVDEPESMVNLAFVKNDSYEKGPDSVVVHVYVKEICRDTSRVLFREQDFTLIFQTRDGNFLRLHPGCGPHTTFRWQVKLRNLIEPEQCTFCFTASRIDICLRKRQSQRWGGLEAPAARVGGAKVAVPTGPTPLDSTPPGGAPHPLTGQEEARAVEKDKSKARSEDTGLDSVATRTPMEHVTPKPETHLASPKPTCMVPPMPHSPVSGDSVEEEEEEEKKVCLPGFTGLVNLGNTCFMNSVIQSLSNTRELRDFFHDRSFEAEINYNNPLGTGGRLAIGFAVLLRALWKGTHHAFQPSKLKAIVASKASQFTGYAQHDAQEFMAFLLDGLHEDLNRIQNKPYTETVDSDGRPDEVVAEEAWQRHKMRNDSFIVDLFQGQYKSKLVCPVCAKVSITFDPFLYLPVPLPQKQKVLPVFYFAREPHSKPIKFLVSVSKENSTASEVLDSLSQSVHVKPENLRLAEVIKNRFHRVFLPSHSLDTVSPSDTLLCFELLSSELAKERVVVLEVQQRPQVPSVPISKCAACQRKQQSEDEKLKRCTRCYRVGYCNQLCQKTHWPDHKGLCRPENIGYPFLVSVPASRLTYARLAQLLEGYARYSVSVFQPPFQPGRMALESQSPGCTTLLSTGSLEAGDSERDPIQPPELQLVTPMAEGDTGLPRVWAAPDRGPVPSTSGISSEMLASGPIEVGSLPAGERVSRPEAAVPGYQHPSEAMNAHTPQFFIYKIDSSNREQRLEDKGDTPLELGDDCSLALVWRNNERLQEFVLVASKELECAEDPGSAGEAARAGHFTLDQCLNLFTRPEVLAPEEAWYCPQCKQHREASKQLLLWRLPNVLIVQLKRFSFRSFIWRDKINDLVEFPVRNLDLSKFCIGQKEEQLPSYDLYAVINHYGGMIGGHYTACARLPNDRSSQRSDVGWRLFDDSTVTTVDESQVVTRYAYVLFYRRRNSPVERPPRAGHSEHHPDLGPAAEAAASQASRIWQELEAEEEPVPEGSGPLGPWGPQDWVGPLPRGPTTPDEGCLRYFVLGTVAALVALVLNVFYPLVSQSRWR
As for B2, the binding result in assay [5] and in assay [6] was “binds” in each case.

B3: HA‐USP19 C152S (enzyme, UniProt O94966 1-1318)
chain: MSGGASATGPRRGPPGLEDTTSKKKQKDRANQESKDGDPRKETGSRYVAQAGLEPLASGDPSASASHAAGITGSRHRTRLFFPSSSGSASTPQEEQTKEGACEDPHDLLATPTPELLLDWRQSAEEVIVKLRVGVGPLQLEDVDAAFTDTDSVVRFAGGQQWGGVFYAEIKSSCAKVQTRKGSLLHLTLPKKVPMLTWPSLLVEADEQLCIPPLNSQTCLLGSEENLAPLAGEKAVPPGNDPVSPAMVRSRNPGKDDCAKEEMAVAADAATLVDEPESMVNLAFVKNDSYEKGPDSVVVHVYVKEICRDTSRVLFREQDFTLIFQTRDGNFLRLHPGCGPHTTFRWQVKLRNLIEPEQCTFCFTASRIDICLRKRQSQRWGGLEAPAARVGGAKVAVPTGPTPLDSTPPGGAPHPLTGQEEARAVEKDKSKARSEDTGLDSVATRTPMEHVTPKPETHLASPKPTCMVPPMPHSPVSGDSVEEEEEEEKKVCLPGFTGLVNLGNTCFMNSVIQSLSNTRELRDFFHDRSFEAEINYNNPLGTGGRLAIGFAVLLRALWKGTHHAFQPSKLKAIVASKASQFTGYAQHDAQEFMAFLLDGLHEDLNRIQNKPYTETVDSDGRPDEVVAEEAWQRHKMRNDSFIVDLFQGQYKSKLVCPVCAKVSITFDPFLYLPVPLPQKQKVLPVFYFAREPHSKPIKFLVSVSKENSTASEVLDSLSQSVHVKPENLRLAEVIKNRFHRVFLPSHSLDTVSPSDTLLCFELLSSELAKERVVVLEVQQRPQVPSVPISKCAACQRKQQSEDEKLKRCTRCYRVGYCNQLCQKTHWPDHKGLCRPENIGYPFLVSVPASRLTYARLAQLLEGYARYSVSVFQPPFQPGRMALESQSPGCTTLLSTGSLEAGDSERDPIQPPELQLVTPMAEGDTGLPRVWAAPDRGPVPSTSGISSEMLASGPIEVGSLPAGERVSRPEAAVPGYQHPSEAMNAHTPQFFIYKIDSSNREQRLEDKGDTPLELGDDCSLALVWRNNERLQEFVLVASKELECAEDPGSAGEAARAGHFTLDQCLNLFTRPEVLAPEEAWYCPQCKQHREASKQLLLWRLPNVLIVQLKRFSFRSFIWRDKINDLVEFPVRNLDLSKFCIGQKEEQLPSYDLYAVINHYGGMIGGHYTACARLPNDRSSQRSDVGWRLFDDSTVTTVDESQVVTRYAYVLFYRRRNSPVERPPRAGHSEHHPDLGPAAEAAASQASRIWQELEAEEEPVPEGSGPLGPWGPQDWVGPLPRGPTTPDEGCLRYFVLGTVAALVALVLNVFYPLVSQSRWR
Take B3: the binding entry in assay [7] is given as “binds”.
